Results reported in paper PMC8294587, “Intrinsic differences in the mechanisms of Tie2 binding to angiopoietins exploited by directed evolution to create an Ang2-selective ligand trap” (The Journal of Biological Chemistry, 2021).
These are yes or no findings as the source states them, for the method shown. Some results given as binding are weak or reduced against the parent protein; the word gives no strength.

By UniProt entry, the sequences of proteins in these tests, tags left out. Where a name states a change or a piece, a line headed by the entry shows the natural chain unless it says otherwise. Chains listed by the source or under a name are the forms on record and can include a tag or linker.
parent Ang2-selective Tie2 ectodomain (R3) (Q02763, form named): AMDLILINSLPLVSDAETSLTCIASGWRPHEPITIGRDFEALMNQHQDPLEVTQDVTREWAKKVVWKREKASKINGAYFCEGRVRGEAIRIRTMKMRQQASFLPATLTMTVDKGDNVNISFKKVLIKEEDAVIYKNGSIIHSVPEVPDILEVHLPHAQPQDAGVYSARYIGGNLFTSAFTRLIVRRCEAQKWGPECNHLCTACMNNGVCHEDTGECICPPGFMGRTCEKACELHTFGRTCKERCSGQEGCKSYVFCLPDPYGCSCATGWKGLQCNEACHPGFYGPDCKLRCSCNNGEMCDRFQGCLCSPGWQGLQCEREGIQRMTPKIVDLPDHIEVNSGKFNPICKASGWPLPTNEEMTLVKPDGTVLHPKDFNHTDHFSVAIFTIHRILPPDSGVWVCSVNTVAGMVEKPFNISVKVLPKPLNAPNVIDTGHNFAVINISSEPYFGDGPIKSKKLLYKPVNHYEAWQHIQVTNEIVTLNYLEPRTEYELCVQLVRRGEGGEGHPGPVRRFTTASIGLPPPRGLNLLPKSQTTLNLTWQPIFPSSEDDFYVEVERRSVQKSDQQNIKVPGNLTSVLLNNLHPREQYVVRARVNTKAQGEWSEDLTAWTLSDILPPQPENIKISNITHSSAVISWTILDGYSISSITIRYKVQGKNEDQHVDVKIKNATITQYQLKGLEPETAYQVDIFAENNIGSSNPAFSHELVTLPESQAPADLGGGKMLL

Assays:
[1] = target: evolved Tie2 ectodomain displayed on DT40 cells selected at 10 pM Ang2 (UniProt Q02763); experiment: flow cytometry on cells; DT40 cells displaying evolved Tie2 ectodomain incubated with increasing concentrations of Ang1 or Ang2 in PBS with 10% FBS, 30 min, room temperature; bound ligand immunostained, normalised to Tie2 expression (anti-FLAG); only the binder purified
Angiopoietin-2 = target: T1, Angiopoietin-2 (UniProt O15123 19-496); experiment: ELISA; recombinant Ang1 or Ang2 immobilised on Maxisorp plates, blocked with TBS, 0.1% Triton-X100, 5% milk powder; Tie2 ectodomain proteins bound for 1 h; detected with anti-Tie2 ectodomain antibodies; EC50 = concentration of ectodomain for 50% of maximal binding; both purified
T1 construct: recombinant Ang2; the residue numbers printed for Ang2 (Asp448, Phe469, Ser480) come from the cited structure 2GY7; also called Ang2; source: recombinant
T1 sequence (looked up): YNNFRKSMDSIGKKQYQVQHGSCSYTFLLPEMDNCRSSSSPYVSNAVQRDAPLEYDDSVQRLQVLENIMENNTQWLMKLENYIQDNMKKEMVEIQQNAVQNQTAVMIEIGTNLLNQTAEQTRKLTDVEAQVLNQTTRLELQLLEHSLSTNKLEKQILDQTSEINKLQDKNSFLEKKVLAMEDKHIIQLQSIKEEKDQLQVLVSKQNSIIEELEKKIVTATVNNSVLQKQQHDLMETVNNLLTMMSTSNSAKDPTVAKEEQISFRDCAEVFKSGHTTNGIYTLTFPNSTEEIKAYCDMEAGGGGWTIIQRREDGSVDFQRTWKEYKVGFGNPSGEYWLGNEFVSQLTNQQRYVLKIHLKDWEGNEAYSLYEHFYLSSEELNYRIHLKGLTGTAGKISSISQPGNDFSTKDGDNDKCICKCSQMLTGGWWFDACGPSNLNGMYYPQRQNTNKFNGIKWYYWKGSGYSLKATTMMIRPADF

In the case of “Angiopoietin-2 (from UniProt O15123 19-496) (ligand)”, the binding [1] is reported as “binds”.

“parent Ang2-selective Tie2 ectodomain (R3) (from UniProt Q02763 23-748) (domain or fragment)” was tested, and the binding (Angiopoietin-2) was “binds”.
